PubChem BioAssay AID1259308 – NCATS | 2017
Purpose: 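Candidate targets for better recombinant protein yield in mammalian cells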 (primary screen). System: human HEK293 embryonic kidney cells stably expressing firefly luciferase (HEK-CMV-Luc2-Hygro). Knock-down reagent: single siRNA against human genes, 0.8 pmol siRNA per well. Timing: 72 h. Measurement: 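Reporter luminescence and viable-cell signal on separate replicate plates, given as percent of non-targeting control and median/MAD z-scores, plus per-cell luciferase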. Scale: total luciferase, z-score: higher = more reporter protein produced. Active means: 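Active when the median/MAD z-score for overall luciferase is greater than 3; a gene was taken forward for validation with new siRNAs if at least two of its three siRNAs passed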. Meaning of the calls: active = raised luciferase; inactive = no rise.
Here is one part, drawn at random, of about 59,000 reagents. About 1,510 of them (2.6%) count as active. 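Calls use total luciferase alone and ignore viability, so some active siRNAs may act by altering cell number.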 Unmarked entries are inactive. Reagents against one gene are numbered here. Further read-outs or replicates are left out here.

target,reagent no.,"total luciferase, z-score"
PSMD12,1,-0.0953
PSMD12,2,2.33
PSMD12,3,0.237
FNDC7,1,0.73
FNDC7,2,0.274
FNDC7,3,0.388
HLA-DQA1,1,0.205
HLA-DQA1,2,1.92
HLA-DQA1,3,1.44
HLA-DQA1,4,0.0137
HLA-DQA1,5,-0.418
HLA-DQA1,6,-0.0471
SCN4B,1,0.79
SCN4B,2,0.867
SCN4B,3,0.18
IMMP1L,1,0.198
IMMP1L,2,0.965
IMMP1L,3,-2.11
RIMS1,1,1.77
RIMS1,2,-0.382
RIMS1,3,0.768
TEKT2,1,0.31
TEKT2,2,0.673
TEKT2,3,-0.0633
RPL10P17,1,1.32
RPL10P17,2,0.695
RPL10P17,3,1.04

Records listed so far whose gene name begins with F or f:
target,reagent no.,"total luciferase, z-score"
FNDC7,1,0.73
FNDC7,2,0.274
FNDC7,3,0.388

More reagents follow:
target,reagent no.,"total luciferase, z-score"
OLIG3,1,-0.747
OLIG3,2,0.115
OLIG3,3,0.799
ELF2,1,0.7
ELF2,2,0.254
ELF2,3,-0.513
TTC13,1,-0.0857
TTC13,2,-0.568
TTC13,3,0.377
RASSF6,1,0.969
RASSF6,2,0.23
RASSF6,3,-1.92
NR1D1,1,-0.969
NR1D1,2,1.07
NR1D1,3,-0.637
CGA,1,-0.188
CGA,2,-0.251
CGA,3,-0.0882
AAR2,1,1.02
AAR2,2,0.402
AAR2,3,-1.14
PRDM4,1,-1.59
PRDM4,2,0.158
PRDM4,3,-0.727
LYSMD4,1,0.827
LYSMD4,2,-0.143
LYSMD4,3,-0.436
SRMS,1,0.25
SRMS,2,3.07 (active)
SRMS,3,-0.472
SEMA6D,1,-2.24
SEMA6D,2,-0.805
SEMA6D,3,0.328
ZNF136,1,-0.362
ZNF136,2,-1.1
ZNF136,3,-0.196
PLCH1,1,1.43
PLCH1,2,0.0963
PLCH1,3,0.183
TINCR,1,-0.523
TINCR,2,0.0989
TINCR,3,0.983
SEMA5A,1,-0.0548
SEMA5A,2,-0.821
SEMA5A,3,-0.285
GUCA2A,1,-0.127
GUCA2A,2,0.493
GUCA2A,3,-0.246
